# Over roughly 33,000 sequences, “E-score (-0.5 to 0.5)” has its median near -0.0014; the highest 2% begin near 0.25. Some of the results follow.
# Biological target: T1, Cad1 (UniProt P24813)
# T1 sequence: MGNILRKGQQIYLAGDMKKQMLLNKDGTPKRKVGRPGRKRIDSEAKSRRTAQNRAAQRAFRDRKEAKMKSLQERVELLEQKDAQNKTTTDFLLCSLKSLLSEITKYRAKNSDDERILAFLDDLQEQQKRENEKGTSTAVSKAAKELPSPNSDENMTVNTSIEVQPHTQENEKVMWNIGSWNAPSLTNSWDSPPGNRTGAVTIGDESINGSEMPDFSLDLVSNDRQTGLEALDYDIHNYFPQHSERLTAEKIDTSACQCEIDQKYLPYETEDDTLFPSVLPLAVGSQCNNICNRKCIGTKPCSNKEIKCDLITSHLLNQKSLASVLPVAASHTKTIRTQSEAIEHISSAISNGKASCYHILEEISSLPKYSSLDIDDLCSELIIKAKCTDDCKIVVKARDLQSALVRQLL
# Experiment: PBM E-score (8-mer binding enrichment) (E-score (-0.5 to 0.5)); higher = stronger / more preferred TF binding
# Details: protein concentration: 100 nM; construct: GST-full length
# Method in brief: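 Yeast transcription factors carrying a GST tag, as full-length proteins or DNA-binding domains, were produced by PURExpress in vitro transcription/translation. About 100-200 nM protein was applied to universal all-10-mer Agilent arrays, double-stranded by primer extension on fresh or once-stripped slides. Bound protein was detected with fluorescent anti-GST, and scans were normalised with masliner. The Universal PBM Analysis Suite gave each ungapped eight-base word, pooled with its reverse complement, an E-score, a modified Wilcoxon-Mann-Whitney statistic.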
row,Sequence,PBM E-score
1,CAGAACGA,0.00871
2,CATAGGAC,-0.122
3,GTTCTACA,-0.128
4,CGGCTGCA,-0.0112
5,GGGGAAAA,-0.0376
6,AGAAACCA,0.0247
7,ATCCTAGC,-0.0714
8,ATGCCTGG,-0.104
9,CCCATACA,0.0294
10,ACCTAAAC,0.00775
11,ATTGCAGC,0.049
12,ACAGCGGG,-0.0666
13,GCTACGTA,0.104
14,ACTTGCAT,0.0331
15,GTTTATAA,0.264
16,CGAGTCTC,-0.153
17,CGACCTAA,0.0725
18,AGAAGAGG,-0.345
19,ATAACTAC,0.0339
20,CACCCCTC,-0.0707
21,ACCCGTGC,-0.181
22,CCTGCAGG,-0.0462
23,CAAGATTG,-0.0156
24,CATAGTCA,0.143
25,GAAGAAAA,0.11

row,Sequence,PBM E-score
1,GCCACCGC,-0.0545
2,ATCGGTTA,0.0856
3,CCCTGGCC,-0.299
4,CTTTATTC,0.0294
5,GAAACTGA,-0.183
6,CCGACCTA,-0.0547
7,AAAGACCG,-0.19
8,CGCCTTGA,-0.153
9,CGTCGCTA,0.16
10,TCGGTCAA,0.165
11,ATCGAGAT,-0.0305
12,GCACTCCC,-0.204
13,CAAATCTG,-0.0187
14,GATTAAGC,0.15
15,ACATAAGT,0.0802
16,AAACTTCA,0.141
17,CTCCCCGA,-0.192
18,CACTACAA,0.0859
19,ACGCGACG,0.00196
20,AAAGTTCT,0.0926
21,ACGGCGAT,-0.0308
22,AATTTAGC,0.0508
23,ACACATAG,0.0113
24,GACTCGTA,-0.123
25,AGAGTGTG,0.0352

row,Sequence,PBM E-score
1,ACAGTTAG,-0.0912
2,AGCGTCAT,-0.0217
3,CAAAGCGG,0.0684
4,CACTATGG,-0.147
5,CTTTACGC,0.00543
6,CAATCCAG,0.0792
7,AGCTATTA,0.0722
8,TCTGACAA,0.25
9,CCGTTCCA,-0.127
10,CGCAACTA,0.104
11,CGTTAACG,0.127
12,CAAGAACC,0.188
13,TGCCGTAA,-0.0404
14,GAGCCTAA,-0.0463
15,GAAGGCGC,-0.151
16,ATAATTCA,0.231
17,TCTGCAAA,-0.116
18,AGAGCCTA,-0.143
19,AGCGCCGA,-0.0579
20,GTACATAC,-0.0558
21,ATCACAAC,0.168
22,CTCCTTTA,-0.227
23,AAGAAATA,0.14
24,ATGCTATA,-0.0309
25,GCAATAGA,-0.12

row,Sequence,PBM E-score
1,AACACGTT,0.0313
2,GCTCCACA,-0.257
3,ACGAAAAG,0.0611
4,CAACTGAC,-0.0722
5,GAAAAAGC,0.0104
6,AATGGGAA,-0.104
7,AACATGGC,-0.185
8,GGGGCACC,-0.283
9,ATACAATG,0.0735
10,CGGTGAAA,0.128
11,AAGAAGAT,-0.0313
12,AAAGTAAA,-0.0556
13,CTTTTCCC,-0.154
14,ATGAGTAA,0.286
15,AGAAAGTG,-0.0968
16,ATTGCATC,0.0875
17,GGAGGCGA,-0.234
18,AATCCTTG,0.111
19,AAAGGCAT,-0.0062
20,AGCTGAGC,-0.09
21,CTGCGATC,-0.06
22,AAGTCAAC,0.0445
23,CAGCGACC,-0.301
24,AATATCAC,0.125
25,AGTTCTCG,0.162

row,Sequence,PBM E-score
1,TCGCCAAA,-0.0355
2,ATTTGCTG,0.145
3,CCTCATTA,0.0805
4,ATCTTAAA,0.131
5,ACGGCTCT,-0.0116
6,ATCCCCGA,-0.159
7,CAATAAGA,0.0132
8,ATACTTCA,-0.0179
9,CAAGCGGA,-0.131
10,GAGCCCCC,-0.447
11,CCTTGCTA,-0.00856
12,CTAGTGAG,-0.0727
13,ATCTTAAG,-0.0679
14,CTTAACTA,0.283
15,CGTCTGAC,0.0953
16,TGTAACAA,0.0148
17,CAGGTGGA,-0.0519
18,AATAGGGC,-0.064
19,ACTTTCAT,0.0146
20,ATCAGAAA,0.1
21,AACGCCCC,-0.131
22,ATTCTCAG,0.00929
23,CAATATGA,0.0827
24,CACCGCCG,-0.257
25,AATCTCTA,0.159

row,Sequence,PBM E-score
1,CGTTGCAA,0.0608
2,ATACCCTA,0.133
3,CTGTATCC,-0.00598
4,CAAGCTCG,0.0678
5,CCGTTGGC,-0.0613
6,ATAAACGC,0.086
7,GCTAAGAC,0.0439
8,GTAGCCCA,-0.0454
9,AGCCTGGC,-0.0332
10,CGGAACGC,0.0834
11,GCAGGGGA,-0.418
12,AGTTTAAC,-0.0817
13,GATGCGGC,-0.101
14,CGAGACTA,-0.0176
15,CGCTTGGC,-0.142
16,CGGACCTC,0.0619
17,GCTATAGA,-0.154
18,CCGGAGTC,-0.0932
19,CACCCCTA,-0.0998
20,CTGCCTGC,-0.0197
21,AGTAGACC,-0.0558
22,GACTGTAA,0.0554
23,GGAGCCCA,-0.291
24,AGAGCTGG,-0.0587
25,GGGGCCAA,-0.249

# Some of the entries so far, as tab-separated lines.
row	Sequence	PBM E-score
13	GCTACGTA	0.104
14	ACTTGCAT	0.0331
15	GTTTATAA	0.264
16	CGAGTCTC	-0.153
17	CGACCTAA	0.0725
18	AGAAGAGG	-0.345
19	ATAACTAC	0.0339
20	CACCCCTC	-0.0707
21	ACCCGTGC	-0.181
22	CCTGCAGG	-0.0462
23	CAAGATTG	-0.0156
24	CATAGTCA	0.143
25	GAAGAAAA	0.11
1	GCCACCGC	-0.0545
2	ATCGGTTA	0.0856
3	CCCTGGCC	-0.299
4	CTTTATTC	0.0294
5	GAAACTGA	-0.183
6	CCGACCTA	-0.0547
7	AAAGACCG	-0.19
8	CGCCTTGA	-0.153
9	CGTCGCTA	0.16
10	TCGGTCAA	0.165
11	ATCGAGAT	-0.0305
12	GCACTCCC	-0.204
13	CAAATCTG	-0.0187
14	GATTAAGC	0.15
15	ACATAAGT	0.0802
16	AAACTTCA	0.141
17	CTCCCCGA	-0.192
18	CACTACAA	0.0859
19	ACGCGACG	0.00196
20	AAAGTTCT	0.0926
21	ACGGCGAT	-0.0308
22	AATTTAGC	0.0508
23	ACACATAG	0.0113
24	GACTCGTA	-0.123
25	AGAGTGTG	0.0352
1	ACAGTTAG	-0.0912
2	AGCGTCAT	-0.0217
3	CAAAGCGG	0.0684
4	CACTATGG	-0.147
5	CTTTACGC	0.00543
6	CAATCCAG	0.0792
7	AGCTATTA	0.0722
8	TCTGACAA	0.25
9	CCGTTCCA	-0.127

# More records.

row,Sequence,PBM E-score
1,GTAGTTAA,0.113
2,ACTTAGGA,-0.135
3,GCCTTTGA,-0.00314
4,CAGACGCG,-0.0361
5,AGTAGATG,-0.0467
6,CAGGCCAC,-0.0933
7,AGCTCCGA,0.0663
8,CGGGCCCG,0.177
9,CCGCTAAG,0.111
10,AGCTTGGC,-0.126
11,ACTCATTG,-0.189
12,AGCACGCG,0.164
13,ACCGGGAA,0.0889
14,GGGAGTAA,-0.0135
15,GTGACACA,0.159
16,CTATTCAA,0.154
17,AGGGGTAC,-0.156
18,CTAGGGCC,-0.0488
19,CCGATCAC,0.169
20,AGGGCCAT,-0.175
21,AGCCCTGC,-0.128
22,GTTCGTCA,-0.124

# Source: the supplement of paper PMC3334620
